These are yes or no findings as the source states them, for the method shown. Binding seen in cells or lysates may run through a third protein. These calls come from enrichment with a bait or labelling near it, and not all partners need be listed. For some assays here: No binding means not detected with the bait. Tags and fused reporters may be left off the sequences shown.
Legend:
[1] = molecular target: T1, His-tagged WaaP expressed in P. aeruginosa (P. aeruginosa) (UniProt Q9HUF7); experiment: affinity purification with mass spectrometry; WaaP-His pulled down from exponentially growing P. aeruginosa CDR0031 by IMAC (His-Trap, eluted with 500 mM imidazole); intact protein LC-MS of co-eluted proteins; overexpressed WaaP-His
T1 sequence: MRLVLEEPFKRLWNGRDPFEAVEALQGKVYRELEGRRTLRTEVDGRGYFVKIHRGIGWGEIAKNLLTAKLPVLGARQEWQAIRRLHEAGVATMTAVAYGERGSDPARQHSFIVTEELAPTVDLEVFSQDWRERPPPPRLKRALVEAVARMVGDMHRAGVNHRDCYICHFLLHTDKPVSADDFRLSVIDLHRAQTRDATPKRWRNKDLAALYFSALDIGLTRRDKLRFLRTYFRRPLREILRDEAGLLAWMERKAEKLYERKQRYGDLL

Protein sequences, listed by entry. Tags and fused reporters are not part of them.
UniProt O54439: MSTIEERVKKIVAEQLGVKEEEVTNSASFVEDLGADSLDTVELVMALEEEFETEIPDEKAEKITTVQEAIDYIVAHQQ

[2] = molecular target: T1, His-tagged WaaP expressed in P. aeruginosa (P. aeruginosa); experiment: affinity purification with mass spectrometry; as a2, but from P. aeruginosa cells expressing WaaP-His at ~40-fold lower protein levels; AcpP confirmed by trypsin digest and MS/MS

Row | binding [1] | binding [2] | Substance
1 | no binding |  | Acp1 (P. aeruginosa (endogenous in CDR0031))
2 | no binding |  | Acp3 (P. aeruginosa (endogenous in CDR0031))
3 | binds | binds | myristyl-AcpP (C14:0) (from UniProt O54439 1-78)
4 | binds |  | palmitoyl (C16:0)-AcpP (from UniProt O54439 1-78)

Source: paper PMC6147952, “Acylated-acyl carrier protein stabilizes the Pseudomonas aeruginosa WaaP lipopolysaccharide heptose kinase” (Scientific Reports, 2018)
